Assay results taken from paper PMC12370185.
This is one part of the list. At the low end of the ranking the order means little.

What follows are sequences tested on SOX2 + histone octamer (assay: Pioneer-seq (competitive nucleosome EMSA with sequencing)). Details: 10 mM Tris-Cl pH 7.5, 50 mM NaCl, 1 mM DTT, 0.25 mg/ml BSA, 2 mM MgCl2, 0.025% Nonidet P-40, 5% glycerol; 28 nM nucleosome library; 10 min on ice then 30 min …; high values mean tight binding; double strand, one strand shown.

Row | Sequence | binding signal (log2 relative supershift)
1 | GATGGACCCTATACGCGGCAGCATGATTCTCGCGATCCGCAGGGCCTCTCGGCTGCTGATCTTCAGCTGGTTGCTGAGAGTTGCAGCATTGCTGAGTCTTAGCAATGGATACTTCCCGATTCCCCTCACAAAAATAGGTCAGTCTGTCTGGCTAGTTCTGTACTTGCAGACACAGGGCATGTGGGGTTCCGGATCCAGCGACTTTACCGGTGCCAGTCGGATAGTGTTCC | -0.291
2 | GATGGACCCTATACGCGGCATACATGGCACATACATTTGCCAAAACCAGTGAAATTTACAACACCAAGCATGAACCCTAATGTAAACGCATACTTTGAGTGATAATGATGTGTCTACGTTGGTTCATCAGCTGCAGCAAATGTACCACACTGGTGTGGACAGTGGGGAAGCCTGTGGGTGTAAGGGGAGGGAGTATATGGGAACTGTCTGTGCCAGTCGGATAGTGTTCC | -0.0699
3 | GATGGACCCTATACGCGGCAGTAAATATTTCAGGCTCTGTGGGTTACGTATCGTTTCTGTTGCAGCAACTCAACTCTGCTCTTGGAGCACAGAAGCAGCCACAAATACGTAAACAAATGGGTGTGGCTGTACACCAGTAAAACTTTACAAAACAAGGAGTGGTCCACGGCCTCAGCGTGCCAGCCTCTGCTCTAAACCGTGACACCCAAATGCCAGTCGGATAGTGTTCC | -0.18
4 | GATGGACCCTATACGCGGCGAGGCACAGAGGCCTGAAGGGGACAGAGTGGGCAGGCCAGGTAGGCCGGGAAAGGTTTGAGGTGGGGACAATAGCCCTGCCCCTCCCCCACTCACGCCTTGAGCCCCTCCTTCTTCAGGATCTGCAAGCCGCAGTCCCACGTGTTCCGGTATTTGTGCGCCTCCAGGCCCTATGGGGGACATCAGCAGGCATGCCAGTCGGATAGTGTTCC | -0.455
5 | GATGGACCCTATACGCGGCGACCTGCTCTGCAAGGCATCAGATGCCTTCCAGTCAGTAAGAGACAAGAGATACACAGGGTGCTCCCATTCCCACAGCAAGCACCACCCTGCACCACTAGTATTAGCACCACCCACATGGAAGGGTGCCAGACACATACCTACTAGCTGCCTGCCACGCATGGAAAATTCTTTAGGCAATACCCTCCGCACTGCCAGTCGGATAGTGTTCC | -0.0578
6 | GATGGACCCTATACGCGGCAAACCCCGCCACTTCCCCTTCCTCGGTAAGAGGAACTTGGCGTTGCCCTGACAGGAAAGTCTTGGTGGGGCTTCTCGGAAGCCGCCACCGCTGCACTGCTGAGCAAAACCACAGGTCAGGGGCCAGGCCGGGGGCCAGGCTAGTGAGGACTGGCCATTGATAAAGTCACAGGCTCCATCTAAGCCCATCGGTGCCAGTCGGATAGTGTTCC | -0.542
7 | GATGGACCCTATACGCGGCCCGGGCAGAACTACTGAGCGAGGAGCCTATCAGTCCTGGTTCCCAAGCTCCCTGCCCCAGCCTGCCCCTGGCCTCCCAGTGCCTTGGCCTGCCTCACATGCCTGGGCTTGGCCCCAGGTTATCTTCAGAGCCATCCCATCCTGCCTCCCTGACTGACCATGCCACTTCCCGCTCAAAACCTGTCCATGGCTTGCCAGTCGGATAGTGTTCC | -0.804
8 | GATGGACCCTATACGCGGCGAAAGCTAGCAGGAGGCGTTGCTCAAGTTCAAAACAATCTGTGCGTGTCCAGGCACGCGCGGAGCCAGACCCCAGCCGCGCGGCTCAGACCTCGCGAGAGCCATCACCTGAGAAATCCACAGCCTTTTCTCATCAGGCTTAGACTGTTTTTCCCATACCTCCAAGAAGGAAGACCCACATGTTAAAACTATTGCCAGTCGGATAGTGTTCC | -0.192
9 | GATGGACCCTATACGCGGCTACACACACGCGCACACCCATACACACGCACCATCTAACACAGTTTGTTCTGCCTAAACTTGGAGGCCCCAGCCATGGCTGGACGAATGCAAAAGAGGAGCAGTGGTGCGAATGAGGCAGTGACCATGCCAGGCCAGAGAACTGGGGCTGCCCACTGCTACTCCTCACTGAGTTGCCCTTGGCTTGTGCTATGCCAGTCGGATAGTGTTCC | -0.175
10 | GATGGACCCTATACGCGGCCAGGGATGAGTAATTCCACTTGACAGACAGGGAAACCTGAGGACGGTGGTTCTCAGACTTTAGGGGCGTTGCTTCCAGTAAGCAGATGTCTGAGCCACGTGGCAAGGAGGATGAGTCAGCAGGTTTGGGGTGGGGCTGGGTATCTGATGTTTACTCAGACCTCCTCATCCTCATCCTGCAGGTGGGCAGATTGCCAGTCGGATAGTGTTCC | -1.13
11 | GATGGACCCTATACGCGGCTCACCCACCCACACATACTCACACATGCCTGCACACGCATACACTCATGCATGCACACACGGTCATCCACCCACATATACACACACATGCACGTTCACATGCACACTCGCATGCACACATGCAGTCACCCACCCACACGTGCACACTCACACACGCATACATAGACATACACACACACGAAGTCACCCACCTGCCAGTCGGATAGTGTTCC | -0.759
12 | GATGGACCCTATACGCGGCGCGGAAGCCACCCACCAAGCTCACACAAGGGATGTGGCTGAACATGTGCTGGGCAAACACTAGAGGGTGAGAGTGGGGCTGACTTAGTAAAAGGGACATGTGGCTTGATTTTTAGTGAAATACCATAGTGTCACAACTAGTGCTGTCTCTGCCCCACGCCAAAAGGAAAAGTCAAGTGAAATAGGCTGGGTTGCCAGTCGGATAGTGTTCC | -0.121
13 | GATGGACCCTATACGCGGCAACACAAACATCCAGTCCATCGCACTGTTCTTCAAACATGCCATGGTGCTCCCCACTCCTGGCCCTTGCACGTGCTCTTCCTTCCACTTAGGATGCCATCTCCGTGCTCCACCCACCTCCTGTGAGTCAGCCTAACACCCTGCTCCTTCAATGGCCAGCCTAAGTATCTCCACCTCTAGGATGCCTCCCTGTGCCAGTCGGATAGTGTTCC | -0.0202
14 | GATGGACCCTATACGCGGCTACTATATAGCTACTCCCCTCTAATATGCACTCTAAGCCCCACCCTTACTGCACTGCTCCACCCTGTGTCTCACCACCATGTGTTTGCTCATGCTGTTCTCTTGGCTTCTCCCCACATCTTGCACCCTTGCTATTAAACTCCTAATGTTTCTTCAAAGTACAGTTCAAAGATCACTTCCTCTTGGGCATATTGCCAGTCGGATAGTGTTCC | -0.057
15 | GATGGACCCTATACGCGGCGCTGGTGTATGCTGGGAGCTATGCAGGCGTAGGGTGTGTCCTGGGCCAGAGGACACAGCACATGCTTAGGCTTGGGAGAAAGGACACTCGCCTGTGATGGGAGAGGCACTCATATTTGGGTCTGTGGTCTGGGCTGTGTGGGTGGGACACAGGGTGTGGACCTGGGTGGATCTTAAGGAGGGTGGATGGCATGCCAGTCGGATAGTGTTCC | -0.535

An excerpt of these results, as a markdown table:

| Row | Sequence | binding signal (log2 relative supershift) |
| --- | --- | --- |
| 6 | GATGGACCCTATACGCGGCAAACCCCGCCACTTCCCCTTCCTCGGTAAGAGGAACTTGGCGTTGCCCTGACAGGAAAGTCTTGGTGGGGCTTCTCGGAAGCCGCCACCGCTGCACTGCTGAGCAAAACCACAGGTCAGGGGCCAGGCCGGGGGCCAGGCTAGTGAGGACTGGCCATTGATAAAGTCACAGGCTCCATCTAAGCCCATCGGTGCCAGTCGGATAGTGTTCC | -0.542 |
| 7 | GATGGACCCTATACGCGGCCCGGGCAGAACTACTGAGCGAGGAGCCTATCAGTCCTGGTTCCCAAGCTCCCTGCCCCAGCCTGCCCCTGGCCTCCCAGTGCCTTGGCCTGCCTCACATGCCTGGGCTTGGCCCCAGGTTATCTTCAGAGCCATCCCATCCTGCCTCCCTGACTGACCATGCCACTTCCCGCTCAAAACCTGTCCATGGCTTGCCAGTCGGATAGTGTTCC | -0.804 |
| 8 | GATGGACCCTATACGCGGCGAAAGCTAGCAGGAGGCGTTGCTCAAGTTCAAAACAATCTGTGCGTGTCCAGGCACGCGCGGAGCCAGACCCCAGCCGCGCGGCTCAGACCTCGCGAGAGCCATCACCTGAGAAATCCACAGCCTTTTCTCATCAGGCTTAGACTGTTTTTCCCATACCTCCAAGAAGGAAGACCCACATGTTAAAACTATTGCCAGTCGGATAGTGTTCC | -0.192 |
| 9 | GATGGACCCTATACGCGGCTACACACACGCGCACACCCATACACACGCACCATCTAACACAGTTTGTTCTGCCTAAACTTGGAGGCCCCAGCCATGGCTGGACGAATGCAAAAGAGGAGCAGTGGTGCGAATGAGGCAGTGACCATGCCAGGCCAGAGAACTGGGGCTGCCCACTGCTACTCCTCACTGAGTTGCCCTTGGCTTGTGCTATGCCAGTCGGATAGTGTTCC | -0.175 |
